Measured values as given in publication PMC5119558, “Applying bimolecular fluorescence complementation to screen and purify aquaporin protein:protein complexes” (Protein Science : A Publication of the Protein Society, 2016).
No constants are given. Whether binding was seen depends on the method and setting. In cells and extracts the contact can be indirect. Some entries that bind do so weakly or less than the wild type. Sequences can lack the tags named with a protein.

Tests used:
[1] = molecular target: T1, YFPN‐AQP0 (6x‐His, N‐terminal part of YFP fused to the N‐terminus of human aquaporin 0) (human) (UniProt P30301); experiment: split reporter; BiFC with split YFP (SYFP2 1-154 and 155-239) in whole S. cerevisiae cells co-expressing both fusions; grown in selective SC medium at 30°C for 22 h; wide-field fluorescence microscopy; fraction of fluorescent cells (minimum 300 cells a sample, 6 to 16 transformations)
T1 sequence: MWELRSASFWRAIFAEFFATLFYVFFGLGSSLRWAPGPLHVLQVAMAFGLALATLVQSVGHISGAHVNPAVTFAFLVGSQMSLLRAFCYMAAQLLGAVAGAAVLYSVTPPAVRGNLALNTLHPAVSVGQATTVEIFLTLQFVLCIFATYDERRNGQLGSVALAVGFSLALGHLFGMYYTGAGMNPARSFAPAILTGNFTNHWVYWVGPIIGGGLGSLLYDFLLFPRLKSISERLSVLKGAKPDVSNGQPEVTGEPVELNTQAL

[2] = molecular target: T1, YFPN‐AQP0 (6x‐His, N‐terminal part of YFP fused to the N‐terminus of human aquaporin 0) (human); experiment: pull-down; YFPN-AQP0 + YFPC-AQP2 co-expressed in S. cerevisiae; membranes solubilised in DDM; HisTrap HP (Ni-NTA) by the His tag on the AQP0 part; 20 mM Hepes pH 7.8, 300 mM NaCl, 10% glycerol, 5 mM CaCl2, 0.02% DDM; imidazole gradient; eluate on SDS-PAGE, immunoblot with anti-his and anti-AQP2; the two chains are linked by the reassembled YFP
[3] = molecular target: T2, YFPC‐AQP0 (6x‐His, C‐terminal part of YFP fused to the N‐terminus of human aquaporin 0) (human) (UniProt P30301); experiment: split reporter; BiFC with split YFP (SYFP2 1-154 and 155-239) in whole S. cerevisiae cells co-expressing both fusions; grown in selective SC medium at 30°C for 22 h; wide-field fluorescence microscopy; fraction of fluorescent cells (minimum 300 cells a sample, 6 to 16 transformations)
T2 sequence: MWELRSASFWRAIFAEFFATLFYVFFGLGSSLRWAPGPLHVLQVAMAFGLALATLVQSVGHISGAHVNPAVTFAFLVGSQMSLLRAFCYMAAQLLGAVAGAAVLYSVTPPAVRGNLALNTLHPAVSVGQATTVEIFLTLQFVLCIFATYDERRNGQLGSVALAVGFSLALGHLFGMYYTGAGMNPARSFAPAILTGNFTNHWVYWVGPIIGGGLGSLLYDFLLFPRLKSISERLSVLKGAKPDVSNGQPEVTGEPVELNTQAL

B1: YFPC‐AQP0 (6x‐His, C‐terminal part of YFP fused to the N‐terminus of human aquaporin 0) (protein, UniProt P30301 1-263)
chain: MWELRSASFWRAIFAEFFATLFYVFFGLGSSLRWAPGPLHVLQVAMAFGLALATLVQSVGHISGAHVNPAVTFAFLVGSQMSLLRAFCYMAAQLLGAVAGAAVLYSVTPPAVRGNLALNTLHPAVSVGQATTVEIFLTLQFVLCIFATYDERRNGQLGSVALAVGFSLALGHLFGMYYTGAGMNPARSFAPAILTGNFTNHWVYWVGPIIGGGLGSLLYDFLLFPRLKSISERLSVLKGAKPDVSNGQPEVTGEPVELNTQAL
Q: How did the binding [1] turn out when B1 was run?
A: Its binding is “binds”.

B2: YFPC‐AQP2 (C‐terminal part of YFP fused to the N‐terminus of human aquaporin 2) (protein, UniProt P41181 1-271)
chain: MWELRSIAFSRAVFAEFLATLLFVFFGLGSALNWPQALPSVLQIAMAFGLGIGTLVQALGHISGAHINPAVTVACLVGCHVSVLRAAFYVAAQLLGAVAGAALLHEITPADIRGDLAVNALSNSTTAGQAVTVELFLTLQLVLCIFASTDERRGENPGTPALSIGFSVALGHLLGIHYTGCSMNPARSLAPAVVTGKFDDHWVFWIGPLVGAILGSLLYNYVLFPPAKSLSERLAVLKGLEPDTDWEEREVRRRQSVELHSPQSLPRGTKA
Q: B2 was tested. Which binding [1] did it give?
A: Its binding is “binds weakly”.

Q: What about the binding [2] of the same binder?
A: The binding was “binds”.

B3: YFPN‐AQP2 (N‐terminal part of YFP fused to the N‐terminus of human aquaporin 2) (protein, UniProt P41181 1-271)
chain: MWELRSIAFSRAVFAEFLATLLFVFFGLGSALNWPQALPSVLQIAMAFGLGIGTLVQALGHISGAHINPAVTVACLVGCHVSVLRAAFYVAAQLLGAVAGAALLHEITPADIRGDLAVNALSNSTTAGQAVTVELFLTLQLVLCIFASTDERRGENPGTPALSIGFSVALGHLLGIHYTGCSMNPARSLAPAVVTGKFDDHWVFWIGPLVGAILGSLLYNYVLFPPAKSLSERLAVLKGLEPDTDWEEREVRRRQSVELHSPQSLPRGTKA
Q: Which binding [3] does the source give for B3 here?
A: The binding was “binds weakly”.
